The structures given here were assigned with low confidence; some may be wrong.
Target: human A2a receptor (Homo sapiens, UniProt P29274)
Assay: A2a receptor competition binding assay (Scintillation Proximity, tritiated radioligand)
Conditions: read-out: A2a EC50; membranes from HEK293 cells expressing the human A2a receptor; 0.5 nM tritiated ligand; SPA beads; one hour at room temperature

EC50: 5.7 nM
SMILES: COc1cc(F)cc2c1nc(N)n1nc(CN3CCN(c4ccc(Br)cc4)C(C)(C)C3)nc21

— patent US9676780B2, “Piperazine-substituted [1,2,4]triazolo[1,5-C]quinazolin-5-amine compounds with A2A antagonist properties” (MERCK SHARP & DOHME CORP., priority 2012, dated 2017)
